## Percent effect of library compounds

Amino acid sequences for entries named in this document (tags omitted). Residues count along the entry.
UniProt P9WFT3, whole entry: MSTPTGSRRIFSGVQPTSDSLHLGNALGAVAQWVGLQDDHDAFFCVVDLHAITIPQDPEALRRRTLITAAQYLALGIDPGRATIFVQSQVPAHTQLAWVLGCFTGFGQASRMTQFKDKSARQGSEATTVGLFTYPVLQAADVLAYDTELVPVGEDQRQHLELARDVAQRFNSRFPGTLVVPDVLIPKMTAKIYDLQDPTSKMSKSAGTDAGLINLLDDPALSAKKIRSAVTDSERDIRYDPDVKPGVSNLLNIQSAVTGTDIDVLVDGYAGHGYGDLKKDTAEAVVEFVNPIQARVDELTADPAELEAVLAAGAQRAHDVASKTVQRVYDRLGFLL
UniProt P9WPC5, whole entry: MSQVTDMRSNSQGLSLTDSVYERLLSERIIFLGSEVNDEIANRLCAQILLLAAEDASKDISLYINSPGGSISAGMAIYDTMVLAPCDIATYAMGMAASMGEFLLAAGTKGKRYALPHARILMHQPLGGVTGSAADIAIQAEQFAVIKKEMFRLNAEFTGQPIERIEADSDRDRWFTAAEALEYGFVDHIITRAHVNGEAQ
UniProt P9WPC3, whole entry partner: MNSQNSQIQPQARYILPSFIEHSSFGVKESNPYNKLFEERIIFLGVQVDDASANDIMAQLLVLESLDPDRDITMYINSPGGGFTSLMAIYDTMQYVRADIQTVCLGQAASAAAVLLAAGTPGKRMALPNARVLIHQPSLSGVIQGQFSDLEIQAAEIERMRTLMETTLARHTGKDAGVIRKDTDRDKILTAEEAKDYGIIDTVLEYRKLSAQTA
UniProt Q4DA54, 1-478: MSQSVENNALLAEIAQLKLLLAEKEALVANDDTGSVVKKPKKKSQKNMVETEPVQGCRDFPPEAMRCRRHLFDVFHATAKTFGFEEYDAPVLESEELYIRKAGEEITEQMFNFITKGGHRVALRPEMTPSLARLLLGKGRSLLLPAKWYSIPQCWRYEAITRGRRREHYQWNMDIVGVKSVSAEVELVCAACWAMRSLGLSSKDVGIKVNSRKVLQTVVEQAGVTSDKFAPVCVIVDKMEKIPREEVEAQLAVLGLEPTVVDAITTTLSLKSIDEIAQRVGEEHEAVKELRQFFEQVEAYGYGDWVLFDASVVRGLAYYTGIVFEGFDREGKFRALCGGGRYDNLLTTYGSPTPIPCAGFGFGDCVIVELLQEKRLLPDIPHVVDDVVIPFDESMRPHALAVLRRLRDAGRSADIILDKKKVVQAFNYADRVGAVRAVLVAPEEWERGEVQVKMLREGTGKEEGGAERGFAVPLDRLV

MtTrpRS: 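Tryptophan-tRNA ligase, Mycobacterium tuberculosis (UniProt P9WFT3). Enzyme assay of tryptophanyl-tRNA synthetase; the read-out is not stated. Concentration: 10 µM. Direction is not recorded; retested compounds ran higher, which suggests that high means inhibition. About 65,000 compounds were tested under these conditions; 0.098% (about 64) showed 50% or more at least once.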
ClpP1P2: 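ClpP1P2, Mycobacterium tuberculosis (UniProt P9WPC5 and UniProt P9WPC3). Protease assay of ClpP1P2, read by the AMC dye that it sets free. Compounds at 50 µM. Direction is inferred from only a few compounds that gave an IC50; most scored high, so higher reads as stronger inhibition. Most other retested compounds had strongly negative values. About 69,000 compounds were tested under these conditions; 0.015% (about 10) showed 50% or more at least once.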
TcHisRS: 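Histidine-tRNA ligase, Trypanosoma cruzi CL Brener (UniProt Q4DA54). Enzyme assay of histidyl-tRNA synthetase; the read-out is not stated. Concentration: 30 µM. Direction is inferred from retests: higher values go with stronger inhibition. About 69,000 compounds were tested under these conditions; 0.045% (about 31) showed 50% or more at least once.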

Results are given as percent effect. The controls that fix the scale are not given in the record; negative values are as filed. Compounds were drawn at random from those tested, without regard to their results.

compound: O=C(NC1CC1)[C@@H]1CCO[C@@H]2CCN(C3CCCC3)C[C@H]21
MtTrpRS: 5.37%
ClpP1P2: -3.318%
TcHisRS: 3.922%

compound: O=C(NCC1CC1)C1CCC2(CCN(C(=O)c3ccccn3)CC2)O1 (stereo unspecified)
MtTrpRS: -0.07633%
ClpP1P2: 1.766%
TcHisRS: 2.256%

compound: CC(C)c1nc2n(n1)CC(NCC(=O)N(C)Cc1cccs1)CC2 (stereo unspecified)
MtTrpRS: -2.07%
ClpP1P2: -13.21%
TcHisRS: -1.622%

compound: Cc1ccc2cc(CNCCCN3CCOCC3)c(=O)[nH]c2c1
MtTrpRS: 1.421%
ClpP1P2: -0.6007%
TcHisRS: 0.5405%

compound: Cc1nc(CN2CCc3cncnc3C2)oc1C
MtTrpRS: 5.773%
ClpP1P2: -6.234%
TcHisRS: 7.438%

compound: CC(=O)N1CC(=O)N(c2ccsc2)CC12CCN(Cc1ccccn1)C2 (stereo unspecified)
MtTrpRS: 0.3255%
ClpP1P2: -13.9%
TcHisRS: 5.882%

compound: O=C(CO)N1CCN(S(=O)(=O)CCCF)CC1
MtTrpRS: 7.043%
ClpP1P2: -11.31%
TcHisRS: -4.972%

compound: CCn1ccnc1CN1CCOC(Cn2cccn2)C1 (stereo unspecified)
MtTrpRS: 22.75%
ClpP1P2: -2.817%
TcHisRS: 0.5634%

compound: O=C(CC1CCN(c2ncnc3cccc(F)c23)CC1)N1CCCC1
MtTrpRS: -4.563%
ClpP1P2: 13.08%
TcHisRS: 0%

compound: CCN1CCCC(c2cc(Nc3cnccn3)nc(C)n2)C1 (stereo unspecified)
ClpP1P2: 2.189%
TcHisRS: 2.996%

compound: CN(CC(=O)Nc1cccc(F)c1)Cc1nc(N)nc(N(C)C)n1
MtTrpRS: -3.744%
ClpP1P2: 3.452%
TcHisRS: 10.98%

compound: COCCC(=O)N1CCC(c2ncncc2-c2ccnc(N)c2)C1 (stereo unspecified)
MtTrpRS: -3.465%
ClpP1P2: -0.8335%
TcHisRS: 7.692%

compound: CSCCc1nc(C(C)C)nn1-c1ccncc1C
MtTrpRS: 4.334%
ClpP1P2: 2.629%
TcHisRS: 5.263%

compound: CC(=O)Nc1nc(-c2ccccc2)c[nH]1
MtTrpRS: -4.338%
ClpP1P2: -17.55%
TcHisRS: 6.341%

compound: O=C(Cn1cccn1)NCC1(c2ccccc2)CC1
MtTrpRS: -3.675%
ClpP1P2: 0.4871%
TcHisRS: 2.642%

compound: Cn1nccc1CNC(=O)Nc1cc(C(F)(F)F)c[nH]c1=O
MtTrpRS: 0%
ClpP1P2: 6.383%
TcHisRS: 3.422%

compound: CCS(=O)(=O)N1CCc2ccc(NC(=O)Nc3ccccc3)cc21
MtTrpRS: -0.1467%
ClpP1P2: -3.001%
TcHisRS: 0.5025%

compound: Cc1cc(Br)ccc1NCc1ccc(C(=O)N(C)C)[nH]1
MtTrpRS: 9.687%
ClpP1P2: -2.334%
TcHisRS: 5%

compound: COCCN(Cc1ccccn1)C(=O)Nc1cccnc1N1CCCC1
MtTrpRS: -3.361%
ClpP1P2: -1.112%
TcHisRS: 9.412%

compound: CCc1cnc(N2CCC3(CC(=O)N(Cc4csc(C)n4)C3)C2)nc1 (stereo unspecified)
MtTrpRS: 1.106%
ClpP1P2: -2.062%
TcHisRS: 1.22%

Repeated from the top, 2 entries:

| compound | MtTrpRS | ClpP1P2 | TcHisRS |
|---|---|---|---|
| `O=C(NC1CC1)[C@@H]1CCO[C@@H]2CCN(C3CCCC3)C[C@H]21` | 5.37% | -3.318% | 3.922% |
| `O=C(NCC1CC1)C1CCC2(CCN(C(=O)c3ccccn3)CC2)O1` (stereo unspecified) | -0.07633% | 1.766% | 2.256% |

Data taken from ChEMBL document CHEMBL3988442, “University of Dundee, Small-Polar-MMV Screening Library” (2021).